{"source": "patent US11278547B2", "about": "(Strongbridge Dublin Limited, priority 2019, dated 2022)", "key": {"[1]": {"details": "Period 1: metformin 500 mg single oral dose alone"}, "[2]": {"details": "Period 3: metformin 500 mg co-administered with levoketoconazole 600 mg Q12H"}}, "note": "Read-outs that look alike come from different tables or passages of the source.", "data": [{"smiles": "CN(C)C(=N)NC(=N)N.Cl", "note": "[metformin, N,N-dimethylimidodicarbonimidic diamide hydrochloride]", "values": [{"measurement": "Cl/F, Geometric Mean", "setting": "[1]", "value": 82.2, "unit": "L/h"}, {"measurement": "Cl/F, Median", "setting": "[1]", "value": 79.7, "unit": "L/h"}, {"measurement": "Cl/F, Geometric Mean", "setting": "[2]", "value": 35.7, "unit": "L/h"}, {"measurement": "Cl/F, Median", "setting": "[2]", "value": 33.1, "unit": "L/h"}]}]}
